Results deposited as PubChem BioAssay AID1259424 (University of Nebraska Medical Center, 2018).
Test: 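Seek colon cancer survival genes behaving like KSR1, using a six-gene signature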 (primary screen). Cells: human HCT116 colon cancer cells. Reagents: siRNA pool against human genes, 50 nM. Measured: 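Log2 levels of six mRNAs (branched-DNA multiplex), adjusted by two reference genes and the non-targeting median, then scored against the average KSR1 knockdown pattern as Pearson r and euclidean distance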. Reading the numbers: mean correlation with KSR1 profile: higher = expression change more like KSR1 knockdown; mean distance from KSR1 profile: higher = expression change less like KSR1 knockdown.
Shown is an unselected part of about 14,000 reagents tested. 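Higher correlation or smaller distance means closer resemblance to KSR1 loss; control wells, including KSR1 knockdowns, recur on many plates.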 Not all columns of the deposit are shown. Not stated in the record: the time to read-out.

MUC5AC (mucin 5AC, oligomeric mucus/gel-forming) → mean correlation with KSR1 profile: 0.0746; mean distance from KSR1 profile: 1.16
DDR1 (discoidin domain receptor tyrosine kinase 1) → mean correlation with KSR1 profile: -0.199; mean distance from KSR1 profile: 3.38
PAQR6 (progestin and adipoQ receptor family member 6) → mean correlation with KSR1 profile: 0.515; mean distance from KSR1 profile: 2.24
PDZK1 (PDZ domain containing 1) → mean correlation with KSR1 profile: -0.312; mean distance from KSR1 profile: 2.87
KCNK2 (potassium two pore domain channel subfamily K member 2) → mean correlation with KSR1 profile: 0.284; mean distance from KSR1 profile: 1.27
LSM2 → mean correlation with KSR1 profile: -0.322; mean distance from KSR1 profile: 2.58
INSR (insulin receptor) → mean correlation with KSR1 profile: 0.126; mean distance from KSR1 profile: 2.41
CHRM2 (cholinergic receptor muscarinic 2) → mean correlation with KSR1 profile: 0.579; mean distance from KSR1 profile: 1.48
MPZL2 (myelin protein zero like 2) → mean correlation with KSR1 profile: -0.251; mean distance from KSR1 profile: 1.84
GADD45A (growth arrest and DNA damage inducible alpha) → mean correlation with KSR1 profile: 0.107; mean distance from KSR1 profile: 1.58
RTKN (rhotekin) → mean correlation with KSR1 profile: -0.414; mean distance from KSR1 profile: 1.61
UBQLN3 (ubiquilin 3) → mean correlation with KSR1 profile: -0.209; mean distance from KSR1 profile: 2.69

Ordered by “mean distance from KSR1 profile” (high to low): some entries from above
UBQLN3 (ubiquilin 3) → mean correlation with KSR1 profile: -0.209; mean distance from KSR1 profile: 2.69
RTKN (rhotekin) → mean correlation with KSR1 profile: -0.414; mean distance from KSR1 profile: 1.61
